Further values from the same series stand in other lists.
System: library of 8,380 IKZF3 degrons (ZF-eGFP/mCherry reporter) in Jurkat cells
Assay: Pooled library screen (FACS, NGS, limma voom LogFC of positive vs negative read counts)
Type: cell-based, human
Method: A library of 8,380 IKZF3 degrons was cloned into pLVX-Sprout to create the eGFP/mCherry protein degradation reporter plasmid pool. A lentivirus pool was then generated using the Lenti-X lentiviral vector production method.
Jurkat cells were transduced at a multiplicity of infection of <0.3 with the lentivirus vector library in order to maximise the number of cells with a single integration. Transductions were carried out in 6 well TC-treated cell culture dishes (Falcon) with 3×10^6 cells per well. Cells were incubated for 2 days at 37° C. and 5% CO2 before the supernatant was removed and replaced with fresh media. 6 days post-transduction, mCherry+ cells were isolated via FACS using the FACS Aria Fusion (BD) in a buffer containing PBS (Gibco), 2 mM EDTA (Gibco), 25 mM HEPES (Sigma) and 1% BSA (Sigma). 8 days later, cells were treated with DMSO or a thalidomide analog for 18 hours at 37° C. and 5% CO2. mCherry+GFPlow and NOT(mCherry+GFPlow) cells were sorted by FACS using the FACS Aria Fusion (BD). DMSO treated cells were used to set the mCherry+GFPlow gate and dead cells were excluded from sorting by staining cells with 1 μg/mL DAPI (ThermoFisher). gDNA was isolated using the Maxwell RSC 48 (Promega). gDNA from cells that were unsorted and untreated were also isolated to determine the library representation on the day of compound treatment. Throughout the screen >600× coverage of the library was maintained. 3 biological replicates were carried out with a new transduction taking place each time.
A two-step PCR was used where the first PCR (PCR1) amplified the integrated degron sequence from gDNA and the second PCR (PCR2) added Illumina adaptors and barcodes to permit multiplexing. See Supp F for PCR1 and PCR2 primers. Q5 Hot Start High-Fidelity 2× Master Mix (New England Biolabs) was used for both PCRs. Sufficient gDNA was amplified in PCR1 in order to maintain >600× coverage and amplicons were purified using solid phase reversible immobilization (SPRI) beads (Beckman Coulter). Purified PCR1 products were analysed on the Tapestation 4200 (Agilent) to confirm purity prior to proceeding to PCR2. Sufficient PCR1 product was amplified in PCR2 in order to maintain >600× coverage and amplicons were run on a 2% agarose TAE gel. Target bands were excised and purified using the NucleoSpin Gel and PCR Clean-up Kit (Machery Nagel). Amplicons were analysed on the Tapestation 4200 and quantified using Qubit dsDNA HS kit (ThermoFisher). PCR products were pooled and sequenced as paired-reads on the NovaSeq (Illumina) using a SP2 200 cycles kit (Illumina).
Count distributions, percentage of read mapping, library coverage and replicate correlation per sample were assessed for QC purposes.
To carry out the library screen, we used the same plasmid construct as in our earlier flow cytometry assays, but pooling all 8,380 mutants together into one Jurkat population, ensuring a copy number of one plasmid per cell (FIG. 4B). […] These GFP-negative cells were then separated from the remaining GFP-positive population using fluorescence activated cell sorting (FACS). These two populations were then sequenced and the relative abundance of every mutant in both populations compared to provide a log FC value for each mutant sequence. This value indicated how frequently a sequence is observed in the GFP-negative population relative to the GFP-positive population, and therefore how effective a degron it is for that particular IMID compound.

## O=C1CCC(N2C(=O)c3ccc(N4CCOCC4)cc3C2=O)C(=O)N1 (stereo not shown) [B03]
Degron-ID 3955, SEQ ID NO 3858, 46F_47V_49E_50V_52G_53A_54S_55F_67L
  B03_logFC: 2.911
Degron-ID 3972, SEQ ID NO 3660, 46F_47V_49N_50I_52G_53A_54P_55F_67L_
  B03_logFC: 3.322
Degron-ID 4020, SEQ ID NO 3900, 46F_47V_49P_50I_52G_53A_54A_55F_67L
  B03_logFC: 2.85
Degron-ID 4021, SEQ ID NO 4347, 46F_47V_49P_50I_52G_53A_54C_55F_67L_
  B03_logFC: 2.129
Degron-ID 4025, SEQ ID NO 3767, 46F_47V_49P_50I_52G_53A_54G_55F_67L_
  B03_logFC: 3.085
Degron-ID 4026, SEQ ID NO 4352, 46F_47V_49P_50I_52G_53A_54H_55F_67L_
  B03_logFC: 2.119
Degron-ID 4031, SEQ ID NO 4037, 46F_47V_49P_50I_52G_53A_54N_55F_67L
  B03_logFC: 2.628
Degron-ID 4033, SEQ ID NO 3788, 46F_47V_49P_50I_52G_53A_54Q_55F_67L_
  B03_logFC: 3.03
Degron-ID 4035, SEQ ID NO 3937, 46F_47V_49P_50I_52G_53A_54S_55F_67L
  B03_logFC: 2.78
Degron-ID 4052, SEQ ID NO 4382, 46F_47V_49P_50Q_52G_53A_54P_55F_67L_
  B03_logFC: 2.064
Degron-ID 4060, SEQ ID NO 3704, 46F_47V_49P_50V_52G_53A_54A_55F_67L_
  B03_logFC: 3.204
Degron-ID 4072, SEQ ID NO 3656, 46F_47V_49P_50V_52G_53A_54P_55F_67L_
  B03_logFC: 3.333
Degron-ID 4073, SEQ ID NO 4041, 46F_47V_49P_50V_52G_53A_54Q_55F_67L
  B03_logFC: 2.62
Degron-ID 4074, SEQ ID NO 4320, 46F_47V_49P_50V_52G_53A_54R_55F_67L_
  B03_logFC: 2.175
Degron-ID 4075, SEQ ID NO 3910, 46F_47V_49P_50V_52G_53A_54S_55F_67L
  B03_logFC: 2.833
Degron-ID 4084, SEQ ID NO 4321, 46F_47W_49D_50I_52G_53A_54F_55F_67L_
  B03_logFC: 2.175
Degron-ID 4089, SEQ ID NO 4296, 46F_47W_49D_50I_52G_53A_54L_55F_67L_
  B03_logFC: 2.23
Degron-ID 4096, SEQ ID NO 3775, 46F_47W_49D_50I_52G_53A_54T_55F_67L_
  B03_logFC: 3.054
Degron-ID 4097, SEQ ID NO 3812, 46F_47W_49D_50I_52G_53A_54V_55F_67L_
  B03_logFC: 2.986
Degron-ID 4099, SEQ ID NO 4256, 46F_47W_49D_50I_52G_53A_54Y_55F_67L_
  B03_logFC: 2.281
Degron-ID 4111, SEQ ID NO 4324, 46F_47W_49D_50Q_52G_53A_54N_55F_67L_
  B03_logFC: 2.168
Degron-ID 4126, SEQ ID NO 3707, 46F_47W_49D_50V_52G_53A_54H_55F_67L_
  B03_logFC: 3.202
Degron-ID 4128, SEQ ID NO 3708, 46F_47W_49D_50V_52G_53A_54K_55F_67L_
  B03_logFC: 3.202
Degron-ID 4136, SEQ ID NO 3887, 46F_47W_49D_50V_52G_53A_54T_55F_67L
  B03_logFC: 2.873
Degron-ID 4143, SEQ ID NO 3934, 46F_47W_49E_50I_52G_53A_54E_55F_67L
  B03_logFC: 2.781
Degron-ID 4144, SEQ ID NO 3747, 46F_47W_49E_50I_52G_53A_54F_55F_67L_
  B03_logFC: 3.129
Degron-ID 4145, SEQ ID NO 3882, 46F_47W_49E_50I_52G_53A_54G_55F_67L
  B03_logFC: 2.877
Degron-ID 4149, SEQ ID NO 3813, 46F_47W_49E_50I_52G_53A_54L_55F_67L_
  B03_logFC: 2.986
Degron-ID 4159, SEQ ID NO 3854, 46F_47W_49E_50I_52G_53A_54Y_55F_67L
  B03_logFC: 2.917
Degron-ID 4166, SEQ ID NO 4394, 46F_47W_49E_50Q_52G_53A_54H_55F_67L_
  B03_logFC: 2.047
Degron-ID 4171, SEQ ID NO 3922, 46F_47W_49E_50Q_52G_53A_54N_55F_67L
  B03_logFC: 2.803
Degron-ID 4173, SEQ ID NO 3841, 46F_47W_49E_50Q_52G_53A_54Q_55F_67L_
  B03_logFC: 2.94
Degron-ID 4174, SEQ ID NO 3753, 46F_47W_49E_50Q_52G_53A_54R_55F_67L_
  B03_logFC: 3.121
Degron-ID 4184, SEQ ID NO 3856, 46F_47W_49E_50V_52G_53A_54F_55F_67L
  B03_logFC: 2.916
Degron-ID 4185, SEQ ID NO 3930, 46F_47W_49E_50V_52G_53A_54G_55F_67L
  B03_logFC: 2.789
Degron-ID 4187, SEQ ID NO 3741, 46F_47W_49E_50V_52G_53A_54I_55F_67L_
  B03_logFC: 3.147
Degron-ID 4192, SEQ ID NO 3851, 46F_47W_49E_50V_52G_53A_54P_55F_67L
  B03_logFC: 2.919
Degron-ID 4199, SEQ ID NO 3819, 46F_47W_49E_50V_52G_53A_54Y_55F_67L_
  B03_logFC: 2.977
Degron-ID 4200, SEQ ID NO 3662, 46F_47W_49N_50I_52G_53A_54A_55F_67L_
  B03_logFC: 3.321
Degron-ID 4201, SEQ ID NO 3646, 46F_47W_49N_50I_52G_53A_54C_55F_67L_
  B03_logFC: 3.356
Degron-ID 4203, SEQ ID NO 4407, 46F_47W_49N_50I_52G_53A_54E_55F_67L_
  B03_logFC: 2.033
Degron-ID 4206, SEQ ID NO 3711, 46F_47W_49N_50I_52G_53A_54H_55F_67L_
  B03_logFC: 3.193
Degron-ID 4207, SEQ ID NO 4328, 46F_47W_49N_50I_52G_53A_54I_55F_67L_
  B03_logFC: 2.157

Reference: patent US20260284208A1, “SYSTEM” (Oxford University Innovation Limited, priority 2023, published 2026)
